Measured data: PubChem BioAssay AID1259254 (NCATS, 2017)

Test: 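Genome-wide screen for genes that prevent DNA re-replication in cancer cells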 (primary screen)
Cells: human HCT116 colorectal cancer cells
Reagent: single siRNA against human genes
Duration: 3 days
Read-out: 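Nuclei stained with Hoechst and imaged; cell-cycle phase assigned by DNA content; G2 share scaled per plate, non-targeting siRNA 0%, GMNN siRNA 100%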
Reading the numbers: G2 robust z-score: higher = more G2 cells, more excess DNA replication
Hit rule: 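Active siRNAs have a G2 robust z of 5 or more median absolute deviations over the median, which in these data means about 38% or higher of GMNN control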
The whole screen tested about 59,000 reagents; shown is a random part of them. About 1,550 of all reagents (2.6%) were called active. 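G2 share is only a proxy for re-replication; each gene was hit by three separate siRNAs, and active genes were retested.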 Unmarked entries are inactive. The numbers tell different reagents against one gene apart. Not all columns of the deposit are shown. Reagent sequences are not shown. The record does not give: the amount of reagent.

How did the screen score CDRT15L2 #1?
G2 robust z-score: 3.11

What is on record for CDRT15L2 #2?
G2 robust z-score: -0.373

What is on record for CDRT15L2 #3?
G2 robust z-score: -0.58

With MAGEA5P #1, what does the deposit list?
G2 robust z-score: -0.199

What is on record for MAGEA5P #2?
G2 robust z-score: -0.368

With MAGEA5P #3, what does the deposit list?
G2 robust z-score: -0.453

With VPS39 #1, what does the deposit list?
G2 robust z-score: -0.155

With VPS39 #2, what was measured?
G2 robust z-score: -0.0743

What is on record for VPS39 #3?
G2 robust z-score: -0.467

For SERPINA7 #1, what was measured?
G2 robust z-score: -0.224

With SERPINA7 #2, how do the results read?
G2 robust z-score: -0.165

What did the screen give for SERPINA7 #3?
G2 robust z-score: -1.27

Which result is listed for LOC727775 (retired record) #1?
G2 robust z-score: 2.02

For LOC727775 (retired record) #2, what was measured?
G2 robust z-score: -0.758

Which result is listed for LOC727775 (retired record) #3?
G2 robust z-score: 2.48

With TRIM11 #1, how do the results read?
G2 robust z-score: -1.41

For TRIM11 #2, how do the results read?
G2 robust z-score: -0.45

What did the screen give for TRIM11 #3?
G2 robust z-score: 0.726

Reprinted from the entries so far (2 entries):
TRIM11 #1 → G2 robust z-score = -1.41
TRIM11 #2 → G2 robust z-score = -0.45
